Data on four substances can be found in PMC12799421, “Inhibition of constitutive activity of the atypical chemokine receptor 3 by the small-molecule inverse agonist VUF16840” (Molecular Pharmacology, 2025).

By UniProt entry, the sequences of proteins in these tests, tags left out.
UniProt P25106: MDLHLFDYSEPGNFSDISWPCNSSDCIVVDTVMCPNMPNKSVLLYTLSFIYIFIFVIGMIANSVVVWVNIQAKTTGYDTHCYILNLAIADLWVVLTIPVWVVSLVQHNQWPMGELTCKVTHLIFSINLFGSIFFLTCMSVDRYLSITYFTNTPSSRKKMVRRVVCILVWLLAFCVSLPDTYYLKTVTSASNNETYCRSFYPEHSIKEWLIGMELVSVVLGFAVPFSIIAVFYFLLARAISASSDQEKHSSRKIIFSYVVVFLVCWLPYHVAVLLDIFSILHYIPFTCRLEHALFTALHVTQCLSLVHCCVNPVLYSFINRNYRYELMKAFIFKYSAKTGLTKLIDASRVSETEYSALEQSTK
UniProt P32121: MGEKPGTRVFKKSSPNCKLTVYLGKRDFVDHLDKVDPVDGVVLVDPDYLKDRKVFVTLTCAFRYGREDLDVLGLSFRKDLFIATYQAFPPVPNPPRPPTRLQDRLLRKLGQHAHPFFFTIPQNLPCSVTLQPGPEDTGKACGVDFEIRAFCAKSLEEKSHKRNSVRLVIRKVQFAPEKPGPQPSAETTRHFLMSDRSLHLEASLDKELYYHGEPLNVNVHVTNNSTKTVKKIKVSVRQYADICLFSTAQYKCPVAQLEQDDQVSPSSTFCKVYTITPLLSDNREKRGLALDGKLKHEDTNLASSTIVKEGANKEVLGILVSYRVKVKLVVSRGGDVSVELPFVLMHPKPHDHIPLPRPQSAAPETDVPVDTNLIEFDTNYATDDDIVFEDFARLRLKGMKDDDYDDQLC
UniProt P21146: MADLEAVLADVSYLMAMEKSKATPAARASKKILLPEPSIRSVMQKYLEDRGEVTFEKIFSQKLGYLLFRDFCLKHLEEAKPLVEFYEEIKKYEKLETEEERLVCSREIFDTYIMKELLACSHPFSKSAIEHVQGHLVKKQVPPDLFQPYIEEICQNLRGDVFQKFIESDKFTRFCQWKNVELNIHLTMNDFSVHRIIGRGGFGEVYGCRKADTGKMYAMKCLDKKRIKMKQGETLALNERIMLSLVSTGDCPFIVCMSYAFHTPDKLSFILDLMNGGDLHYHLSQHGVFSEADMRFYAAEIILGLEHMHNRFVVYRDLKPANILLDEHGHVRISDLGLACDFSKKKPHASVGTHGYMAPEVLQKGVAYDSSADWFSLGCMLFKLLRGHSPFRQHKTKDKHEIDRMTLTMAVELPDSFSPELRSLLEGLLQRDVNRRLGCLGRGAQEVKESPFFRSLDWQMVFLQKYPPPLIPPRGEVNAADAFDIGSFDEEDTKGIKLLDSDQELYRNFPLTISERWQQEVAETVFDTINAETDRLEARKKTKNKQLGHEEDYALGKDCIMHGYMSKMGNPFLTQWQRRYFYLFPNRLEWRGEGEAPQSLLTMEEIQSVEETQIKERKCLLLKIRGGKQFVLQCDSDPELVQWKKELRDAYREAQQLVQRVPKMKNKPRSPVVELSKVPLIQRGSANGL
UniProt P32120: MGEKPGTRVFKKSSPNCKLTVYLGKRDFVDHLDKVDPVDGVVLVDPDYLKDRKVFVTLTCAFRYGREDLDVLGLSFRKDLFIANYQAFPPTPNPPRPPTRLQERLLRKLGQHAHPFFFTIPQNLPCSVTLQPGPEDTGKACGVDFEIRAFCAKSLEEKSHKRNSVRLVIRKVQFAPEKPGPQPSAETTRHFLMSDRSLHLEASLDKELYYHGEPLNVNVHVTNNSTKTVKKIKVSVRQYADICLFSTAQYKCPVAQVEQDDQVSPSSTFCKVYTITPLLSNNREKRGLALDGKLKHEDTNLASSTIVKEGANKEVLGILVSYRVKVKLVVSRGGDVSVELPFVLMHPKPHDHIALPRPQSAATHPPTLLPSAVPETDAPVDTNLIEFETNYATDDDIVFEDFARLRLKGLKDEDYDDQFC

These are yes or no findings as the source states them, for the method shown. Binding seen in cells or lysates may run through a third protein. Some entries that bind do so weakly or less than the wild type. For some of these results: Sequences can lack the tags named with a protein.

The target of one assay is T1, SmBiT-clathrinA (UniProt P09496).
T1 sequence: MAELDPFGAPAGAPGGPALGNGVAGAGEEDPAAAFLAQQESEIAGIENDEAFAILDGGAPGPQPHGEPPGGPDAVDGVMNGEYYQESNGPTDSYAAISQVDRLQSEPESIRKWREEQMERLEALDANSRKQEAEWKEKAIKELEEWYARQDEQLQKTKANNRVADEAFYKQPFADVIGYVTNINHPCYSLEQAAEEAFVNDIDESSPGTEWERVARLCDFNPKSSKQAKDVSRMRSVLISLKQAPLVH
The assay is described as follows: split reporter; NanoBiT complementation of β-arrestin2-LgBiT and SmBiT-clathrin A in HEK293T cells co-transfected with ACKR3; basal and with VUF15485 or VUF16840; 37 °C.

For assay [1], the target named is T2, hCCR3 C-terminally tagged with SmBiT (chemokine receptor screen) (human) (UniProt P51677).
T2 sequence: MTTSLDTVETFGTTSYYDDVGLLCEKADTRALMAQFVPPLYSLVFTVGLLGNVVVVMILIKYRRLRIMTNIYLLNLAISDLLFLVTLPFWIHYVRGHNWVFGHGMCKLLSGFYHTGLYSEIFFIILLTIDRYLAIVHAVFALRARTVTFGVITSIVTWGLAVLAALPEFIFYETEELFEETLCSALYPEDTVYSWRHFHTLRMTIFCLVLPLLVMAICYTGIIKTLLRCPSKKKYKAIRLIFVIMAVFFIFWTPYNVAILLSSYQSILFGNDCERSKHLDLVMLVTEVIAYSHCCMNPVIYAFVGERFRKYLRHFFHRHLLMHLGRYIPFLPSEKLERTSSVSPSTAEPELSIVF
The assay is described as follows: split reporter; NanoBiT chemokine receptor screen: receptor C-terminally tagged with SmBiT and β-arrestin2 N-terminally fused to LgBiT in HEK293T cells; 1 μM VUF16840 or chemokine agonist; 20 minutes read.

In the next assay the target is hACKR3-Rluc8 (human) (UniProt P25106). Kind of assay: FRET or BRET; BRET between Rluc8-fused chemokine receptor (ACKR3-Rluc8 or CXCR4-Rluc8) and mVenus fusion proteins in transiently transfected HEK293T cells; basal and with CXCL11, CXCL12, VUF15485 or VUF16840.

In the case of “β-arrestin2-LgBiT (from UniProt P32121 1-409)”, the binding result with SmBiT-clathrinA was “binds”. On to “β-arrestin2, N-terminally fused to the LgBiT sensor (chemokine receptor screen) (from UniProt P32121 1-409)”, for which, in assay [1], the binding entry was “binds”. Take “GRK2-mVenus (from UniProt P21146 1-689) (enzyme)”: the binding result with hACKR3-Rluc8 (human) is “binds”. “β-arrestin2-mVenus (from UniProt P32120 1-420)”: the binding result in the assay with hACKR3-Rluc8 (human) was “binds”.
